The list shows only some results of the screen, not a fair sample: it is rich in T/C values a quarter to a half above the control, in often repeated tests (any T/C) and in doses without a T/C. Other doses and runs of a compound stand elsewhere. T/C: endpoint of the treated group in % of that of the vehicle group. Some doses have a count of surviving animals in place of a T/C: the source files T/C as zero there, which appears to mark a toxic dose or a test without result, not a measured value. Some doses without a T/C left all or most animals alive at the check, yet need not have been tolerated: survival well below the control is almost never listed, so the zero probably covers shortened survival too. Counts of survivors are from the toxicity check (mostly the fifth day) where no day follows; animals may have died later. Schedule codes are those of the source, taken here to give the interval after Q, in days (D) or hours (H), and the number of doses after X. Some entries were tested several times; the results are listed from low to high. For survival time, this PubChem deposit counts one and a half times the control or more as active, and values a quarter to a half above the control carry no call in these data; other NCI protocols may use other cut-offs.
Test system: BDF1 mice, B16 melanoma ip, median survival T/C
Assay: NCI In Vivo Anticancer Drug Screen. Data for tumor model B16 Melanoma (intraperitoneal) in B6D2F1 (BDF1) mice
Conditions: T/C endpoint: median survival time, higher T/C = longer survival
Procedure, shortened: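 Read-out: survival or tumor size, given as treated/control ratio. Controls received vehicle only; animals bore transplantable tumors.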

[1] = dose: 50.0 mg/kg/injection, schedule: Q01DX009 (ip), vehicle: saline
[2] = dose: 200.0 mg/kg/injection, schedule: Q01DX009 (ip), vehicle: saline
[3] = dose: 400.0 mg/kg/injection, schedule: Q01DX009 (ip), vehicle: saline
[4] = dose: 6.0 mg/kg/injection, schedule: Q01DX009 (ip), vehicle: Klucel (hydroxypropylcellulose) (HPC)
[5] = dose: 12.0 mg/kg/injection, schedule: Q01DX009 (ip), vehicle: Klucel (hydroxypropylcellulose) (HPC)
[6] = dose: 50.0 mg/kg/injection, schedule: Q01DX009 (ip), vehicle: Klucel (hydroxypropylcellulose) (HPC)
[7] = dose: 100.0 mg/kg/injection, schedule: Q01DX009 (ip), vehicle: water
[8] = dose: 100.0 mg/kg/injection, schedule: Q01DX009 (ip), vehicle: Klucel (hydroxypropylcellulose) (HPC)
[9] = dose: 200.0 mg/kg/injection, schedule: Q01DX009 (ip), vehicle: Klucel (hydroxypropylcellulose) (HPC)
[10] = dose: 200.0 mg/kg/injection, schedule: Q01DX009 (ip), vehicle: saline with Tween-80
[11] = dose: 400.0 mg/kg/injection, schedule: Q01DX009 (ip), vehicle: saline with Tween-80
[12] = dose: 400.0 mg/kg/injection, schedule: Q01DX009 (ip), vehicle: Klucel (hydroxypropylcellulose) (HPC)
[13] = dose: 200.0 mg/kg/injection, schedule: Q04DX003 (ip), vehicle: saline with Tween-80

OCCN1CCN(CCCN2c3ccccc3Oc3ccc(C(F)(F)F)cc32)CC1
survivor count (dose: 25.0 mg/kg/injection, schedule: Q01DX009 (ip), vehicle: saline): 10 of 10
survivor count [1]: 6 of 10
survivor count (dose: 100.0 mg/kg/injection, schedule: Q01DX009 (ip), vehicle: saline): 0 of 10
survivor count [2]: 0 of 10
survivor count [3]: 0 of 10

CC(=O)[O][Pb]([CH2]C(C)C)([CH2]C(C)C)[CH2]C(C)C
survivor count (dose: 1.5 mg/kg/injection, schedule: Q01DX009 (ip), vehicle: Klucel (hydroxypropylcellulose) (HPC)): 10 of 10
survivor count (dose: 3.0 mg/kg/injection, schedule: Q01DX009 (ip), vehicle: Klucel (hydroxypropylcellulose) (HPC)): 6 of 10
survivor count [4]: 9 of 10
survivor count [5]: 3 of 10

C=CS(C=C)=NS(=O)(=O)c1ccc(C)cc1
survivor count [6]: 0 of 10

CCCCn1ccnc1C
survivor count [7]: 0 of 10
survivor count (dose: 200.0 mg/kg/injection, schedule: Q01DX009 (ip), vehicle: water): 0 of 10

Cc1ccc2c(c1)CC(C)([CH2][Hg][Cl])O2 (centres undefined)
survivor count [4]: 9 of 10
survivor count (dose: 6.0 mg/kg/injection, schedule: Q04DX003 (ip), vehicle: Klucel (hydroxypropylcellulose) (HPC)): 10 of 10
survivor count [5]: 6 of 10
survivor count (dose: 12.0 mg/kg/injection, schedule: Q04DX003 (ip), vehicle: Klucel (hydroxypropylcellulose) (HPC)): 9 of 10

CCN(CC)CCOC(=O)C(c1ccccc1)C1CCCCC1 (centres undefined)
survivor count [2]: 1 of 10
survivor count [3]: 0 of 10

C=C1C(=O)OC2CC1C(O)C/C(C)=C/CC/C(C)=C/C(O)CC2C (centres undefined)
survivor count [6]: 8 of 10
survivor count [8]: 0 of 10
survivor count [9]: 0 of 10

Nc1nccnc1N
survivor count [10]: 3 of 6

CCCN(C)N=Nc1ccccc1C(=O)O
T/C (dose: 50.0 mg/kg/injection, schedule: Q01DX009 (ip), vehicle: saline with Tween-80): 148 % of control
survivor count [8]: 10 of 10
survivor count (dose: 100.0 mg/kg/injection, schedule: Q01DX009 (ip), vehicle: saline with Tween-80): 8 of 10

O=Cc1ccc(/C=C2\C=Cc3ccccc32)cc1
survivor count [10]: 10 of 10
survivor count [11]: 10 of 10

CC(=O)Nc1ccc2c(Nc3ccc(NS(C)(=O)=O)cc3)c3ccccc3nc2c1
T/C (dose: 15.0 mg/kg/injection, schedule: Q01DX009 (ip), vehicle: saline sonified): 143 % of control
T/C (dose: 50.0 mg/kg/injection, schedule: Q01DX001 (ip), vehicle: saline sonified): 133 % of control
survivor count (dose: 60.0 mg/kg/injection, schedule: Q01DX009 (ip), vehicle: saline with Tween-80): 6 of 6
T/C (dose: 100.0 mg/kg/injection, schedule: Q01DX001 (ip), vehicle: saline sonified): 130 % of control
survivor count (dose: 120.0 mg/kg/injection, schedule: Q01DX009 (ip), vehicle: saline with Tween-80): 6 of 6

C1CC[N-]CC1.C1CC[N-]CC1.[Cl][Pt+2]([Cl])([Cl])[Cl]
survivor count [12]: 3 of 10

COc1ccc2c(NCCCCCCCCNc3c4ccccc4nc4cc(OC)ccc34)c3ccccc3nc2c1
T/C (dose: 0.93 mg/kg/injection, schedule: Q01DX009 (ip), vehicle: distilled water + alcohol): 139 % of control
T/C (dose: 1.87 mg/kg/injection, schedule: Q01DX009 (ip), vehicle: distilled water + alcohol): 145 % of control
survivor count (dose: 7.5 mg/kg/injection, schedule: Q01DX009 (ip), vehicle: distilled water + alcohol): 10 of 10
survivor count (dose: 15.0 mg/kg/injection, schedule: Q01DX009 (ip), vehicle: distilled water + alcohol): 5 of 10
survivor count (dose: 30.0 mg/kg/injection, schedule: Q01DX009 (ip), vehicle: distilled water + alcohol): 1 of 10

COc1ccc(N=C(N)NC#N)cc1
survivor count [12]: 10 of 10

CCN(CC)CCCC(C)Nc1c2ccc(Cl)cc2nc2cc(Cl)ccc12 (centres undefined)
survivor count [8]: 7 of 10

CCN(CC)C(=S)SSC(=S)N(CC)CC
survivor count (dose: 12.5 mg/kg/injection, schedule: Q01DX009 (ip), vehicle: Klucel (hydroxypropylcellulose) (HPC)): 8 of 10
survivor count [6]: 10 of 10
survivor count [8]: 10 of 10
survivor count [9]: 5 of 10
survivor count [12]: 8 of 10

CC(C)CC(C)(c1ccc(O)cc1)c1ccc(O)cc1
survivor count [11]: 0 of 10

O=C1CCNC(=O)N1OS(=O)(=O)c1ccccc1
survivor count [6]: 10 of 10
survivor count [8]: 9 of 10
survivor count [9]: 4 of 10

CCCCCCCCCC(=O)N(C)OC
survivor count (dose: 100.0 mg/kg/injection, schedule: Q04DX003 (ip), vehicle: saline with Tween-80): 10 of 10
survivor count [13]: 10 of 10
survivor count (dose: 400.0 mg/kg/injection, schedule: Q04DX003 (ip), vehicle: saline with Tween-80): 10 of 10

Cc1ccc(Cl)cc1NC(=O)c1ccccc1Cl
survivor count [12]: 10 of 10

CC1(C)CCSC(/C=C/c2ccccc2)=N1
survivor count [12]: 1 of 10

CCC(CC)(C[NH-])C[NH-].[Cl][Pt+2][Cl]
T/C (dose: 0.6 mg/kg/injection, schedule: Q01DX009 (ip), vehicle: carboxymethylcellulose (CMC)): 149 % of control
survivor count (dose: 3.6 mg/kg/injection, schedule: Q01DX009 (ip), vehicle: carboxymethylcellulose (CMC)): 9 of 10 on day 10

CCN(CC)S(=O)(=O)c1ccc(OC)c(N)c1
survivor count [13]: 10 of 10

N=C(N)c1ccc(OCCCOc2ccc(C(=N)N)cc2Br)c(Br)c1
survivor count [1]: 3 of 10 and 5 of 10

O=C(O)C(S)c1ccc2ccccc2c1 (centres undefined)
survivor count [12]: 4 of 10

COc1cc2cc[n+](C)cc2cc1OC
survivor count [7]: 10 of 10

O=c1c(O)c(-c2cc(O)c(O)c(O)c2)oc2cc(O)cc(O)c12
survivor count (dose: 200.0 mg/kg/injection, schedule: Q02DX009 (ip), vehicle: saline with Tween-80): 10 of 10
survivor count (dose: 400.0 mg/kg/injection, schedule: Q02DX009 (ip), vehicle: saline with Tween-80): 10 of 10

CC(NC(=O)OC(C)(C)C)C(=O)ON1C(=O)CCC1=O (centres undefined)
survivor count [10]: 9 of 10
survivor count [11]: 7 of 9
